Assay results: the supplement of paper PMC11732987, “Enantioselective OTUD7B fragment discovery through chemoproteomics screening and high-throughput optimisation” (Communications Chemistry, 2025)
This is one part of the list. The data scatter; read single values as rough.

The chains behind the UniProt entries cited, without tags or fusion partners. Where a name states a change or a piece, a line headed by the entry shows the natural chain unless it says otherwise. Residues count along the entry.
UniProt P51587: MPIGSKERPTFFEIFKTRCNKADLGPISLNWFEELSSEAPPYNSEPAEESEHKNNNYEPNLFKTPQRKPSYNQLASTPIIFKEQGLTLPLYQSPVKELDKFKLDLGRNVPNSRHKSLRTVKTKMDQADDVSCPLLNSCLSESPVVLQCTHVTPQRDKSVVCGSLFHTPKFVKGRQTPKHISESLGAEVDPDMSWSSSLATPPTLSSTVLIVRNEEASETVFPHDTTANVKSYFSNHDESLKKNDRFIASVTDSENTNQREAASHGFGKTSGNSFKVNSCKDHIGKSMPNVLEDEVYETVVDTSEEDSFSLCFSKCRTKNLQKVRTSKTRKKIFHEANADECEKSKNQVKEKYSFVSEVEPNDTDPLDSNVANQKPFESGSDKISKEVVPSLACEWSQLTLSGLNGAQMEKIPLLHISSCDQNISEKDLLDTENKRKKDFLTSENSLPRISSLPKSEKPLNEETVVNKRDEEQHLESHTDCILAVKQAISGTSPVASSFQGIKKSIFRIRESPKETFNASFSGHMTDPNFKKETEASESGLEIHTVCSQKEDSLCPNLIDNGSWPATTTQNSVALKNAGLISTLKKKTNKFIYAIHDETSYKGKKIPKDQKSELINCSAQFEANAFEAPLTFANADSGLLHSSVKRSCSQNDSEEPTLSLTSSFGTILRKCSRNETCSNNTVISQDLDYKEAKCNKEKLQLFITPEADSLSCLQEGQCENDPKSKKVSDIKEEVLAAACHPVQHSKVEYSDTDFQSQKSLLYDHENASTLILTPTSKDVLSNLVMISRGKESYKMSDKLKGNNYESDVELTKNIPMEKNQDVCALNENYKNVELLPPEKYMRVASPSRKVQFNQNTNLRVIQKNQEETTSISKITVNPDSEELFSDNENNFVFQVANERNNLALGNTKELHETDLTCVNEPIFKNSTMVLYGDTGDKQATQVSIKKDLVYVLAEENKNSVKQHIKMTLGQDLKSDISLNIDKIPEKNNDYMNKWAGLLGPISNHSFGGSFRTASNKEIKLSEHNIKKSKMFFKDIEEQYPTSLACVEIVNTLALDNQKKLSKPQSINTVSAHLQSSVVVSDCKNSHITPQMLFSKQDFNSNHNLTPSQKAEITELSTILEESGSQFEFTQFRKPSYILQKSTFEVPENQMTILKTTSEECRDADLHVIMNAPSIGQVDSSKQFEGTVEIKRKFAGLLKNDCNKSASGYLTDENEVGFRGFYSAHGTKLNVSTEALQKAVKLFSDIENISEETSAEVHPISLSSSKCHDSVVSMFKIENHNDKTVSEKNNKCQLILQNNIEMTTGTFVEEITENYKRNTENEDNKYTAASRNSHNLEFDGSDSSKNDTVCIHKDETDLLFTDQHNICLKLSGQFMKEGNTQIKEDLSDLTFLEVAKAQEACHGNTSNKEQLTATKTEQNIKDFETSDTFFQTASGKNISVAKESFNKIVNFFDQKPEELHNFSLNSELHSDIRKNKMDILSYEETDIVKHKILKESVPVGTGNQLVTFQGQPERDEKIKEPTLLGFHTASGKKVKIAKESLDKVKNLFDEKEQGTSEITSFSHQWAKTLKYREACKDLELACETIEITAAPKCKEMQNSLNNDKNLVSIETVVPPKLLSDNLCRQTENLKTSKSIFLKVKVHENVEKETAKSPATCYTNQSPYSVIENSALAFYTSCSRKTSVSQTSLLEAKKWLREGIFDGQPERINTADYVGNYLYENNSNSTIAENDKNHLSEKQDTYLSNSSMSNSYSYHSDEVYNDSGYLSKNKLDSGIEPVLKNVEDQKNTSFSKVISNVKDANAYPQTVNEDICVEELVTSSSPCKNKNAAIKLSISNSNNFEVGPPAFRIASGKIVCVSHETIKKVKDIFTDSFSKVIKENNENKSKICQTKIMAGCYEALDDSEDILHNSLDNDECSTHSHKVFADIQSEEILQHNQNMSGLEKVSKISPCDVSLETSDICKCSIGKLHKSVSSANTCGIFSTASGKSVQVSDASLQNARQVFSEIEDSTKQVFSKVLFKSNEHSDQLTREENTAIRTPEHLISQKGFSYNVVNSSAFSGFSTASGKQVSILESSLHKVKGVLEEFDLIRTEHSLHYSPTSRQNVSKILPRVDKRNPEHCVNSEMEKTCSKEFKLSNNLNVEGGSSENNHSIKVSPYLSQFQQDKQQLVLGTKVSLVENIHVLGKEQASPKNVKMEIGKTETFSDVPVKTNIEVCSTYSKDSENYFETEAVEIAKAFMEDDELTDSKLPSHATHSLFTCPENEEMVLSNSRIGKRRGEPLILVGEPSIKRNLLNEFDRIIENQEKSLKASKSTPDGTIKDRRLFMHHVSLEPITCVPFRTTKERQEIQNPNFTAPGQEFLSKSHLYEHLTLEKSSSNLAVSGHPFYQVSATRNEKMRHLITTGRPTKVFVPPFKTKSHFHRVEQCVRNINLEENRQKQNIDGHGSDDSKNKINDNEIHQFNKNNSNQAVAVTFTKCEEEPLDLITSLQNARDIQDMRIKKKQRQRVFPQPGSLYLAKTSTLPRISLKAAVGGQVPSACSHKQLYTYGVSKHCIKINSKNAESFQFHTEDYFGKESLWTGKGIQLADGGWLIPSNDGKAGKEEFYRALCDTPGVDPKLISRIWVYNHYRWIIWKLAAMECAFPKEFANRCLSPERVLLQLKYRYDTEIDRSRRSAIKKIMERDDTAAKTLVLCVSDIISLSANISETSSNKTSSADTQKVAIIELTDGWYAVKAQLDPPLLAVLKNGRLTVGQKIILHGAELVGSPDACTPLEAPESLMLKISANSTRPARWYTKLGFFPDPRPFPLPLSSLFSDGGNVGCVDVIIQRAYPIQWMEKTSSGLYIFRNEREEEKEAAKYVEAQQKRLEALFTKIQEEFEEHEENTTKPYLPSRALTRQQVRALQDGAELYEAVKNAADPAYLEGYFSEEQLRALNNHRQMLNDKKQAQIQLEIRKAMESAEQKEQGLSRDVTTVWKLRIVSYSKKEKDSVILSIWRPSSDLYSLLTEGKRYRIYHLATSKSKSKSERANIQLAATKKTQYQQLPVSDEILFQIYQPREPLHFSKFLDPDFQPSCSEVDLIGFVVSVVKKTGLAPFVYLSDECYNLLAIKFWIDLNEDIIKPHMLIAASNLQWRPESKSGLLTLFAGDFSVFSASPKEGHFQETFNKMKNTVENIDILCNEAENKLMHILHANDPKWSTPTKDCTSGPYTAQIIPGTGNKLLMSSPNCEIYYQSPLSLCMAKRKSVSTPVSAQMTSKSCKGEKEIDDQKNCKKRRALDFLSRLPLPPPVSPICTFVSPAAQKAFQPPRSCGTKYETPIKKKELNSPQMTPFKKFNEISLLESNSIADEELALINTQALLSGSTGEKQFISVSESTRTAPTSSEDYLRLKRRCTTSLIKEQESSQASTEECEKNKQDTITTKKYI
UniProt O75808, 121-144: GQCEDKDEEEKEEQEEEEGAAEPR
UniProt Q9H7E9, 2-24: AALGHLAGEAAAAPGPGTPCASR
UniProt Q14137: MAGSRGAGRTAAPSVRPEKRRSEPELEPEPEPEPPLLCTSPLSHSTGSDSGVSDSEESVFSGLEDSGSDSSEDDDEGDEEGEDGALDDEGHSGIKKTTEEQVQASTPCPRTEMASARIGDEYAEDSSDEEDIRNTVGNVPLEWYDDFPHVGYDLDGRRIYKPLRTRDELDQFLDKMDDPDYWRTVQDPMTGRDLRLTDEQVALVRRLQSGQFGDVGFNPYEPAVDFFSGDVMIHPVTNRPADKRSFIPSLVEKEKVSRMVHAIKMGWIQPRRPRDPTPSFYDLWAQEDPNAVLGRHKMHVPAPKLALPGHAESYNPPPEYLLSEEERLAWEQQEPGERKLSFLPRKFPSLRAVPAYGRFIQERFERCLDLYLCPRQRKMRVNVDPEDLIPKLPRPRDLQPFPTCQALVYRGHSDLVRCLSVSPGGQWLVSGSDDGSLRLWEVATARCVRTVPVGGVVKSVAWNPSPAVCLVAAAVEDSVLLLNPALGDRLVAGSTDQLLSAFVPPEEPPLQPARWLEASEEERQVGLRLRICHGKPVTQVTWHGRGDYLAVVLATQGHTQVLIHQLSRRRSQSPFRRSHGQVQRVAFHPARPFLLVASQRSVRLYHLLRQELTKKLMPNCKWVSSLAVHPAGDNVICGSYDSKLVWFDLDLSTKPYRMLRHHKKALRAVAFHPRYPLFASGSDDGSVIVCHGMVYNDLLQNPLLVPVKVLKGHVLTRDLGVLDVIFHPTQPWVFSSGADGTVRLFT
UniProt Q7Z569: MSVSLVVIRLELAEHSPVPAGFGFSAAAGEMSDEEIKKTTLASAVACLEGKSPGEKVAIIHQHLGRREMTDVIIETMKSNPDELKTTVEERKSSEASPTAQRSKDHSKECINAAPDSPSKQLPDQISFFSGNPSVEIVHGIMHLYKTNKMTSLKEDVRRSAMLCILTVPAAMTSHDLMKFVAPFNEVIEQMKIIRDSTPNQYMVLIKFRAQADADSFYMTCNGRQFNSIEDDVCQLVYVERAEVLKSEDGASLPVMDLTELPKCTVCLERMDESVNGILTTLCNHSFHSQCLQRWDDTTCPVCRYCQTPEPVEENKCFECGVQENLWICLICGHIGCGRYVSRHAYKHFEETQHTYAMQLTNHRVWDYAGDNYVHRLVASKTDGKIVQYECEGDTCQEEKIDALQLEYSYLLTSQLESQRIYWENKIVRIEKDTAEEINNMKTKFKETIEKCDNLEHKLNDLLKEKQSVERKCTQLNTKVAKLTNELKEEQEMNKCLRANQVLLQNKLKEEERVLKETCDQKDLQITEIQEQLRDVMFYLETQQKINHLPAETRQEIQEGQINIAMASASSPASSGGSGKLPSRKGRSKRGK
UniProt Q49AR2: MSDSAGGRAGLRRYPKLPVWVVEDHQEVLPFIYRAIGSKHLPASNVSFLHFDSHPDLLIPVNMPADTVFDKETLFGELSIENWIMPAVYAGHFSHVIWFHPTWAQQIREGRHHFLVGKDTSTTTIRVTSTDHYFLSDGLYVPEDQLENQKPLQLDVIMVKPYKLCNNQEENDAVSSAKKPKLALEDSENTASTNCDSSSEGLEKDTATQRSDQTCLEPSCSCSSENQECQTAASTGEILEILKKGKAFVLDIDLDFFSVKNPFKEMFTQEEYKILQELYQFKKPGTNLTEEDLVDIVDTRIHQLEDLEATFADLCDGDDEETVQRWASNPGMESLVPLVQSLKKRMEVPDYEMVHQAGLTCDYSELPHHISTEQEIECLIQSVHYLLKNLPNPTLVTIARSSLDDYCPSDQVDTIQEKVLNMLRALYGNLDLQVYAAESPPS
UniProt Q13555: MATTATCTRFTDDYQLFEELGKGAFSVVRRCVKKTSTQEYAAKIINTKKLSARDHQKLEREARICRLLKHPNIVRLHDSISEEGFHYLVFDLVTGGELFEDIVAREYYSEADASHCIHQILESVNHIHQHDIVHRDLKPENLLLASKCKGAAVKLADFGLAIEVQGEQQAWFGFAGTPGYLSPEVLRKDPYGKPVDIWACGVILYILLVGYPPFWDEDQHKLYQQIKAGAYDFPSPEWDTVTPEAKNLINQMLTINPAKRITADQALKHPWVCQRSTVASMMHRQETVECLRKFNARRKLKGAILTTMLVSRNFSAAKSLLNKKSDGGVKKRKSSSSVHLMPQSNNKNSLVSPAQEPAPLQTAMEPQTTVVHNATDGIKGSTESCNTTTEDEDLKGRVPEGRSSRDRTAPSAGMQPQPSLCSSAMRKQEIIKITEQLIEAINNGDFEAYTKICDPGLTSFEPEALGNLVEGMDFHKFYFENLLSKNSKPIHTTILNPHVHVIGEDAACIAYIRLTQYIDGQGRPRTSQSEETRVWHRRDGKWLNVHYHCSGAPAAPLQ
UniProt O75828: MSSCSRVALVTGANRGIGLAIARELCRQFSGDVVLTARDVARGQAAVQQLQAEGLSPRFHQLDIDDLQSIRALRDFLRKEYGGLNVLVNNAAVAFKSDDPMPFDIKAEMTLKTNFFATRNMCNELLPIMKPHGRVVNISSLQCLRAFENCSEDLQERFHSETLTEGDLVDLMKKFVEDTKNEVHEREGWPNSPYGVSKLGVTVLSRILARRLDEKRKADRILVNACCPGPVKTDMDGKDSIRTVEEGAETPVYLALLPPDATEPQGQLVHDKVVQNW
UniProt P35520, 337-359: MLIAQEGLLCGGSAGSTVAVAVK
UniProt P07738: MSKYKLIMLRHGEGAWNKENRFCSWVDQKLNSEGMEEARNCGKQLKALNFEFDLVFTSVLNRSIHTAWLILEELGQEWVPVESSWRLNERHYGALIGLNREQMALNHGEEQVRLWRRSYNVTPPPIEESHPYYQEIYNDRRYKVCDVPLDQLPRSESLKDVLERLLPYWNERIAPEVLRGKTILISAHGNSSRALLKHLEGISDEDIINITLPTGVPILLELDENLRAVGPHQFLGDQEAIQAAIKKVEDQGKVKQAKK
UniProt Q9Y6J0, 1755-1775: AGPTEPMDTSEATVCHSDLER

Compound: ClCC(=O)N[C@H]1CCCc2ccccc12
Test: log2 mean competition ratio of IA-DTB cysteine labelling (DMSO/compound) (log2 ratio); higher = stronger cysteine engagement by compound
Details: 50 µM; treatment time: 4 h; cell line lysate: HEK293T
Method: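 IA-DTB competitive cysteine chemoproteomics in HEK293T RIPA lysate. Lysates were treated with compound 29 or 30 at 50 or 200 µM for 4 h, then IA-DTB (500 µM, 1 h), trypsin-digested, NeutrAvidin-enriched and analysed by diaPASEF. Competition ratio = intensity DMSO / intensity compound (n=4 treated, n=64 DMSO); binding: mean log2 CR ≥ 1 and p ≤ 0.05 plus QC filters. Target is the cysteine site.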

Target | log2 mean competition ratio
BRD7 C107 (UniProt Q9NPI1) | -0.321
BRCA2 C916 (UniProt P51587) | -0.457
CAPN15 C123 (UniProt O75808) | -0.117
BRME1 C79 | -0.0807
BRCA1 C442 (UniProt P38398) | -0.0374
C8orf33 C21 (UniProt Q9H7E9) | 0.0886
CAND1 C571 | 0.12
BTAF1 C1401 (UniProt O14981) | -0.0597
CARMIL1 C235 | -0.211
BOP1 C108 (UniProt Q14137) | -0.0814
BRAP C47 (UniProt Q7Z569) | -0.632
CAMSAP1 C947 (UniProt Q5T5Y3) | -0.372
C5orf22 C165 (UniProt Q49AR2) | -0.452
CAMK2G C7 (UniProt Q13555) | 0.205
CADPS2 C639 | -0.101
CBR3 C150 (UniProt O75828) | 0.261
CBS C346 (UniProt P35520) | -0.18
BPGM C23 (UniProt P07738) | -0.228
BRWD3 C782 | -0.331
CABIN1 C1769 (UniProt Q9Y6J0) | 0.035

Same assay, conditions: 200 µM; treatment time: 4 h; cell line lysate: HEK293T

Target | log2 mean competition ratio
BRD7 C107 (UniProt Q9NPI1) | 0.304
BRCA2 C916 (UniProt P51587) | -0.0381
CAPN15 C123 (UniProt O75808) | -0.0234
BRME1 C79 | 0.272
BRCA1 C442 (UniProt P38398) | 0.0549
C8orf33 C21 (UniProt Q9H7E9) | 0.141
CAND1 C571 | -0.0408
BTAF1 C1401 (UniProt O14981) | -0.407
CARMIL1 C235 | -0.0696
BOP1 C108 (UniProt Q14137) | -0.0236
BRAP C47 (UniProt Q7Z569) | -0.0127
CAMSAP1 C947 (UniProt Q5T5Y3) | -0.251
C5orf22 C165 (UniProt Q49AR2) | 0.352
CAMK2G C7 (UniProt Q13555) | 0.324
CADPS2 C639 | 0.271
CBR3 C150 (UniProt O75828) | -0.0374
CBS C346 (UniProt P35520) | 0.0287
BPGM C23 (UniProt P07738) | -0.0159
BRWD3 C782 | 0.35
CABIN1 C1769 (UniProt Q9Y6J0) | -0.219
